Source: publication PMC4258025
Results are given in words; binding and its absence hold for the method and conditions named. Binding seen in cells or lysates may run through a third protein.

Molecular target: T1, sirtuin1 (SIRT1) (human (endogenous in OECM1 and HSC3)), Q96EB6
T1 chain: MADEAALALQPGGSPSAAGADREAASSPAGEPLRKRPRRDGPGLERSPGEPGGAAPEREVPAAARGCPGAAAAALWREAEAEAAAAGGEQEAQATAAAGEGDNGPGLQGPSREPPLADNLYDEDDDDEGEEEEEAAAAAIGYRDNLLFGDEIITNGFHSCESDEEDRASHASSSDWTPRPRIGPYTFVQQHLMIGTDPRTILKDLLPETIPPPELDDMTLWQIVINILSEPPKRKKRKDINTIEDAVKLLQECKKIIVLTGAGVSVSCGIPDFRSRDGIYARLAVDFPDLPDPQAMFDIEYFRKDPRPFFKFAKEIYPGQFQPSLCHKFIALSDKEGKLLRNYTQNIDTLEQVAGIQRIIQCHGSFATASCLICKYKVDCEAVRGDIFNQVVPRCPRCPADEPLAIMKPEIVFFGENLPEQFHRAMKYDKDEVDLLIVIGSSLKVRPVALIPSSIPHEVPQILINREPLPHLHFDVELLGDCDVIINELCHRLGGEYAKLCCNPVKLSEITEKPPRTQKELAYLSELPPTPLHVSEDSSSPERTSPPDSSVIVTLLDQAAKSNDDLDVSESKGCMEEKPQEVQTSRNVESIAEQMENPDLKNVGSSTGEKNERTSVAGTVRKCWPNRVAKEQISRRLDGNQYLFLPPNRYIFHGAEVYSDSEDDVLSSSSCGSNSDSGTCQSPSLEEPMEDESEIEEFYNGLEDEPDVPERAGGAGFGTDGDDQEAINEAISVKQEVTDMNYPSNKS
Experiment: co-IP; nuclear extracts of OECM1 and HSC3 cells, lysed with RIPA buffer; 2 mg protein immunoprecipitated with a SIRT1 or Smad4 antibody (Pierce Crosslink IP Kit); western blot for Smad2, Smad4 and SIRT1; endogenous proteins
Settings: remark: other sources report otherwise

B1: Smad2, Q15796 1-467 (protein)
chain: MSSILPFTPPVVKRLLGWKKSAGGSGGAGGGEQNGQEEKWCEKAVKSLVKKLKKTGRLDELEKAITTQNCNTKCVTIPSTCSEIWGLSTPNTIDQWDTTGLYSFSEQTRSLDGRLQVSHRKGLPHVIYCRLWRWPDLHSHHELKAIENCEYAFNLKKDEVCVNPYHYQRVETPVLPPVLVPRHTEILTELPPLDDYTHSIPENTNFPAGIEPQSNYIPETPPPGYISEDGETSDQQLNQSMDTGSPAELSPTTLSPVNHSLDLQPVTYSEPAFWCSIAYYELNQRVGETFHASQPSLTVDGFTDPSNSERFCLGLLSNVNRNATVEMTRRHIGRGVRLYYIGGEVFAECLSDSAIFVQSPNCNQRYGWHPATVCKIPPGCNLKIFNNQEFAALLAQSVNQGFEAVYQLTRMCTIRMSFVKGWGAEYRRQTVTSTPCWIELHLNGPLQWLDKVLTQMGSPSVRCSSMS
Question: B1 was tested. Which binding did it give?
Answer: The binding was “no binding”.
